Sequences of proteins named here, by UniProt entry; tags and fusion partners are left off.
UniProt P27487, whole entry: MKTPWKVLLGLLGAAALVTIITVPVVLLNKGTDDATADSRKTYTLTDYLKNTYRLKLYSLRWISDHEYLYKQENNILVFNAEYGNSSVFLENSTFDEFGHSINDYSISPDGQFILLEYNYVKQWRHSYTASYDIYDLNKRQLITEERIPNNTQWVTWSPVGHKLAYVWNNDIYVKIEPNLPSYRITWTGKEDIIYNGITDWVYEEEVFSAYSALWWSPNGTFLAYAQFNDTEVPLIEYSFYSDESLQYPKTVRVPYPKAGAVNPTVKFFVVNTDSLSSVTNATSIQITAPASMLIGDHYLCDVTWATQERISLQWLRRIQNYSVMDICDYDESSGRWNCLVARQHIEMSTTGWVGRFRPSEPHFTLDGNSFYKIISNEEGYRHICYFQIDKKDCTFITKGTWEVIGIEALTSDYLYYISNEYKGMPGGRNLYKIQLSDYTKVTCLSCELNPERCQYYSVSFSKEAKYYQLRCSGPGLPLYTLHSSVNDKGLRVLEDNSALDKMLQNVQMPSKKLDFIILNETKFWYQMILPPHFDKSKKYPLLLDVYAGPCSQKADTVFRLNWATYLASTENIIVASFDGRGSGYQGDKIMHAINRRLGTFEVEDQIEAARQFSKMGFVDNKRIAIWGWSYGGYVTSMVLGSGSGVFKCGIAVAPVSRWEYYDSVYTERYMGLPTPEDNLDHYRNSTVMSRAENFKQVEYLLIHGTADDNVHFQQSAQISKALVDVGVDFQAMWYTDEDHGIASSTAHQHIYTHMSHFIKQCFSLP

According to patent US9115083B2 (Simpson Biotech Co., Ltd, priority 2011, dated 2015):

Molecular target: dipeptidyl peptidase-IV (DPPIV) (Homo sapiens (Human), UniProt P27487)
Assay: dipeptidyl peptidase-IV (DPPIV) assay
Assay type: biochemical
Details: Table 10, first scaffold
Source text: In addition, the dipeptidyl peptidase-IV (DPPIV) assay herein was applied to investigate the DPPIV inhibitory activity of the prepared compounds as described above. The method of the DPPIV assay was described in Lin et al., 1998. Inhibition of dipeptidyl peptidase IV by fluoroolefin-containing N-peptidyl-O-hydroxylamine peptidomimetics. Proc. Natl. Acad. Sci. USA Vol. 95, pp. 14020-14024.

SMILES	IC50 against DPPIV
CC(C)=CCOc1ccc(C2=C(CC(C)C)C(=O)N(C(CC(C)C)C(=O)NC3CC3)C2=O)cc1 (centres unmarked) [Compound A1-6, N-Cyclopropyl-2-(3-isobutyl-4-(4-(3-methylbut-2-enyloxy)phenyl)-2,5-dioxo-2,5-dihydro-1H-pyrrol-1-yl)-4-methylpentanamide]	> 100 μg/ml and 50 μg/ml
CC(C)=CCOc1ccc(C2=C(CC(C)C)C(=O)N(C(Cc3ccccc3)C(=O)NC3CC3)C2=O)cc1 (centres unmarked)	> 100 μg/ml and 43 μg/ml

The source holds more than one record for some entries. They are shown here; other results are not. There may be further records. Values that stand side by side do not match, cause unknown; some may be repeats, others may stem from another dose, organism or construct than stated.
